{"source": "PubChem BioAssay AID1259308 (NCATS, 2017)", "purpose": "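Knock-downs that increase output of a recombinant reporter protein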 (primary screen)", "cell system": "human HEK293 embryonic kidney cells stably expressing firefly luciferase (HEK-CMV-Luc2-Hygro)", "reagents": "single siRNA against human genes, 0.8 pmol siRNA per well", "timing": "72 h", "detection": "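Luciferase light (ONE-Glo) measured on one replicate plate set and viability (CellTiter-Glo) on the other, scaled to a negative control siRNA, with robust z-scores and luciferase per cell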", "reading the numbers": "total luciferase, z-score: higher = more reporter protein produced", "active means": "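An siRNA counts as active if its total luciferase robust z-score exceeds 3; genes with two or more such siRNAs out of three were retested with fresh siRNAs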", "calls": "active = raised luciferase; inactive = no rise", "note": "In all, the deposit lists about 59,000 reagents; shown is a part drawn at random. Over the whole deposit, about 1,510 (2.6%) got an active call. 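Calls use total luciferase alone and ignore viability, so some active siRNAs may act by altering cell number.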 Reagents against one gene are numbered here. Further read-outs or replicates are left out here."}
{"target gene": "SLC22A10", "siRNA no.": 1, "total luciferase, z-score": -0.294, "outcome": "inactive"}
{"target gene": "SLC22A10", "siRNA no.": 2, "total luciferase, z-score": 0.466, "outcome": "inactive"}
{"target gene": "SLC22A10", "siRNA no.": 3, "total luciferase, z-score": 0.572, "outcome": "inactive"}
{"target gene": "ARB2BP", "siRNA no.": 1, "total luciferase, z-score": 0.211, "outcome": "inactive"}
{"target gene": "ARB2BP", "siRNA no.": 2, "total luciferase, z-score": 1.34, "outcome": "inactive"}
{"target gene": "ARB2BP", "siRNA no.": 3, "total luciferase, z-score": -0.683, "outcome": "inactive"}
{"target gene": "ATG10", "siRNA no.": 1, "total luciferase, z-score": -0.224, "outcome": "inactive"}
{"target gene": "ATG10", "siRNA no.": 2, "total luciferase, z-score": -0.282, "outcome": "inactive"}
{"target gene": "ATG10", "siRNA no.": 3, "total luciferase, z-score": 1.32, "outcome": "inactive"}
{"target gene": "STK16", "siRNA no.": 1, "total luciferase, z-score": -0.426, "outcome": "inactive"}
{"target gene": "STK16", "siRNA no.": 2, "total luciferase, z-score": 0.445, "outcome": "inactive"}
{"target gene": "STK16", "siRNA no.": 3, "total luciferase, z-score": -0.605, "outcome": "inactive"}
{"target gene": "ESM1", "siRNA no.": 1, "total luciferase, z-score": 1.18, "outcome": "inactive"}
{"target gene": "ESM1", "siRNA no.": 2, "total luciferase, z-score": -2.12, "outcome": "inactive"}
{"target gene": "ESM1", "siRNA no.": 3, "total luciferase, z-score": -1.5, "outcome": "inactive"}
{"target gene": "DGLUCY", "siRNA no.": 1, "total luciferase, z-score": 0.449, "outcome": "inactive"}
{"target gene": "DGLUCY", "siRNA no.": 2, "total luciferase, z-score": -0.0481, "outcome": "inactive"}
{"target gene": "DGLUCY", "siRNA no.": 3, "total luciferase, z-score": -1.07, "outcome": "inactive"}
{"target gene": "EMC1", "siRNA no.": 1, "total luciferase, z-score": 0.475, "outcome": "inactive"}
{"target gene": "EMC1", "siRNA no.": 2, "total luciferase, z-score": -1.46, "outcome": "inactive"}
{"target gene": "EMC1", "siRNA no.": 3, "total luciferase, z-score": 0.091, "outcome": "inactive"}

Looked up above:
Under “outcome”, DGLUCY #1 shows inactive
For “total luciferase, z-score”, ATG10 #3 reads 1.32
